Measured values: patent US20210047426A1
Results are given in words; binding and its absence hold for the method and conditions named.

Target: Cynomolgus CD123-His (soluble cynomolgus IL3R-alpha) (cynomolgus monkey)
Assay: bifunctional ELISA, plate coated with cynomolgus monkey CD123, detection with human CD3-biotin and streptavidin-HRP

B1: Control Bi-Specific Diabody (Control DART) (bispecific antibody)
chain 1: DVVMTQTPFSLPVSLGDQASISCRSSQSLVHSNGNTYLRWYLQKPGQSPKVLIYKVSNRFSGVPDRFSGSGSGTDFTLKISRVEAEDLGVYFCSQSTHVPWTFGGGTKLEIKGGGSGGGGEVQLVESGGGLVQPGGSLRLSCAASGFTFNTYAMNWVRQAPGKGLEWVARIRSKYNNYATYYADSVKDRFTISRDDSKNSLYLQMNSLKTEDTAVYYCVRHGNFGNSYVSWFAYWGQGTLVTVSSGGCGGGEVAALEKEVAALEKEVAALEKEVAALEK
chain 2: QAVVTQEPSLTVSPGGTVTLTCRSSTGAVTTSNYANWVQQKPGQAPRGLIGGTNKRAPWTPARFSGSLLGGKAALTITGAQAEDEADYYCALWYSNLWVFGGGTKLTVLGGGGSGGGGEVKLDETGGGLVQPGRPMKLSCVASGFTFSDYWMNWVRQSPEKGLEWVAQIRNKPYNYETYYSDSVKGRFTISRDDSKSSVYLQMNNLRVEDMGIYYCTGSYYGMDYWGQGTSVTVSSGGCGGGKVAALKEKVAALKEKVAALKEKVAALKE
Which binding does the source give for B1 here?
Its binding is “no binding (tested: 1 ug/ml)”.
